Experimental data from paper PMC2868895.
Results are given in words; binding and its absence hold for the method and conditions named. In cells and extracts the contact can be indirect. Some binding calls cover weakened binding; strength is not graded here.

Sequences of proteins named here, by UniProt entry; tags and fusion partners are left off.
UniProt Q08999: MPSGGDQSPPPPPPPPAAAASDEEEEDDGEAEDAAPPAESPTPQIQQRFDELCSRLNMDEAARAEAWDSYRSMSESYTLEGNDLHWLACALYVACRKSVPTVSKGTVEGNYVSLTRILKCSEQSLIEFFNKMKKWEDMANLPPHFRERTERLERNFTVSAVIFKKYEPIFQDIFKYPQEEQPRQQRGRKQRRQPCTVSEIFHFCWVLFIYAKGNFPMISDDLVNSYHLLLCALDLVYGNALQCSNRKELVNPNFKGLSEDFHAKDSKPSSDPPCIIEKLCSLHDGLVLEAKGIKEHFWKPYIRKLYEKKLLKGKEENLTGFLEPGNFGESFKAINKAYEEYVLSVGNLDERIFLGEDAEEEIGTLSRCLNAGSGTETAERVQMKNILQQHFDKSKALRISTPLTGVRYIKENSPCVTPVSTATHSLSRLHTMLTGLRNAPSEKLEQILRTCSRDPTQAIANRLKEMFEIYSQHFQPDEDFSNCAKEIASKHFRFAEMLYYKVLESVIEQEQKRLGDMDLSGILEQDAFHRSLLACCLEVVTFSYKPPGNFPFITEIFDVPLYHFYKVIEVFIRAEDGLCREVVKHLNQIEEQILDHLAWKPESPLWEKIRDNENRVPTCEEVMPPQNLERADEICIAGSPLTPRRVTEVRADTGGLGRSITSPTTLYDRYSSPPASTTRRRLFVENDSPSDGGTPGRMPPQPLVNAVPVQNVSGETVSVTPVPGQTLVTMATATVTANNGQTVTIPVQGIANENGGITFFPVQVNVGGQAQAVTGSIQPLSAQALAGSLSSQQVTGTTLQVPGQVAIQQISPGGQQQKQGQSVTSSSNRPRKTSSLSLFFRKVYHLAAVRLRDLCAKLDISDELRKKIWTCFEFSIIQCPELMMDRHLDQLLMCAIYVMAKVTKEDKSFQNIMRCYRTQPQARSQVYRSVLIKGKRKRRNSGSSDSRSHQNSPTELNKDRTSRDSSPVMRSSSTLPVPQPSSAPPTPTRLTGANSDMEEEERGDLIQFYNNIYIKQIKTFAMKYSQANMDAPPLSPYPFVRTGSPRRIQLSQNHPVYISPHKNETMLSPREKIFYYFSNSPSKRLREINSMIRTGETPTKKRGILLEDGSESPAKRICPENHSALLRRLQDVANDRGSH
UniProt P03083: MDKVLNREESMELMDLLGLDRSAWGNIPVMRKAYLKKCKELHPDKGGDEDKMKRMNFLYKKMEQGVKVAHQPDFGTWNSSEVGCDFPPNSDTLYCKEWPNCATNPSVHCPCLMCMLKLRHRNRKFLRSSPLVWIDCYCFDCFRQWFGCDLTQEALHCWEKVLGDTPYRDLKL

Columns and labels:
[1] = biological target: p130 (UniProt Q08999); assay: co-IP; data not shown: co-IP/WB for p130 and pRB; antibodies and conditions not told
[2] = biological target: T1, pRB (UniProt P06400); assay: as above
T1 sequence: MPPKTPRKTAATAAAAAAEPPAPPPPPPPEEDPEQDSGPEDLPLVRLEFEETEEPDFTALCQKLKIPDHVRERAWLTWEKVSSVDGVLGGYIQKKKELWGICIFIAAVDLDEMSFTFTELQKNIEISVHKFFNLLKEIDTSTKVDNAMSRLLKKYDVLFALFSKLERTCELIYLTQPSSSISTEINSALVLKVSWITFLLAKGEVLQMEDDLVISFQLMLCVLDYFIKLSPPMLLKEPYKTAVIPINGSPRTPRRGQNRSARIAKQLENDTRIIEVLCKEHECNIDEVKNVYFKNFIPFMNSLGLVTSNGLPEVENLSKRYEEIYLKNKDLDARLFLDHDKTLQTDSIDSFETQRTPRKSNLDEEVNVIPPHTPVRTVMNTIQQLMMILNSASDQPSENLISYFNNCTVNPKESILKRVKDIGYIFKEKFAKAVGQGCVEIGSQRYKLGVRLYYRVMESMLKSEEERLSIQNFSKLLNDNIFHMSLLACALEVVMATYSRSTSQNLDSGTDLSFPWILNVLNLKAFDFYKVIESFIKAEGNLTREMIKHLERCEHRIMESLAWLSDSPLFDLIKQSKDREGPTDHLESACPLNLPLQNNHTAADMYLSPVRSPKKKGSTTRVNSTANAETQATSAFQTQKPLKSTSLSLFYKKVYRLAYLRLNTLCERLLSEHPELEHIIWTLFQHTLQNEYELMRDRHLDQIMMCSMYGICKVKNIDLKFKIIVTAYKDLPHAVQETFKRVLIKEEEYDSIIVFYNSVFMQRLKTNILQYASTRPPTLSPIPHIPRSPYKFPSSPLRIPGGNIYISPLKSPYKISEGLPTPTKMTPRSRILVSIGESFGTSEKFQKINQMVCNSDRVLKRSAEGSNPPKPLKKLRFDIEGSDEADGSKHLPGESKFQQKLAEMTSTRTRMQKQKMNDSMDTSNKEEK

[3] = biological target: T2, p107 (human (endogenous in Molt 4)) (UniProt P28749); assay: co-IP; lysates of Rat2, MEF or 3T3 cells expressing all five JCV early proteins or tAg only, incubated overnight with Molt 4 extracts; IP with anti-p107 antibody, Western blot with a cocktail of anti-T monoclonal antibodies
T2 sequence: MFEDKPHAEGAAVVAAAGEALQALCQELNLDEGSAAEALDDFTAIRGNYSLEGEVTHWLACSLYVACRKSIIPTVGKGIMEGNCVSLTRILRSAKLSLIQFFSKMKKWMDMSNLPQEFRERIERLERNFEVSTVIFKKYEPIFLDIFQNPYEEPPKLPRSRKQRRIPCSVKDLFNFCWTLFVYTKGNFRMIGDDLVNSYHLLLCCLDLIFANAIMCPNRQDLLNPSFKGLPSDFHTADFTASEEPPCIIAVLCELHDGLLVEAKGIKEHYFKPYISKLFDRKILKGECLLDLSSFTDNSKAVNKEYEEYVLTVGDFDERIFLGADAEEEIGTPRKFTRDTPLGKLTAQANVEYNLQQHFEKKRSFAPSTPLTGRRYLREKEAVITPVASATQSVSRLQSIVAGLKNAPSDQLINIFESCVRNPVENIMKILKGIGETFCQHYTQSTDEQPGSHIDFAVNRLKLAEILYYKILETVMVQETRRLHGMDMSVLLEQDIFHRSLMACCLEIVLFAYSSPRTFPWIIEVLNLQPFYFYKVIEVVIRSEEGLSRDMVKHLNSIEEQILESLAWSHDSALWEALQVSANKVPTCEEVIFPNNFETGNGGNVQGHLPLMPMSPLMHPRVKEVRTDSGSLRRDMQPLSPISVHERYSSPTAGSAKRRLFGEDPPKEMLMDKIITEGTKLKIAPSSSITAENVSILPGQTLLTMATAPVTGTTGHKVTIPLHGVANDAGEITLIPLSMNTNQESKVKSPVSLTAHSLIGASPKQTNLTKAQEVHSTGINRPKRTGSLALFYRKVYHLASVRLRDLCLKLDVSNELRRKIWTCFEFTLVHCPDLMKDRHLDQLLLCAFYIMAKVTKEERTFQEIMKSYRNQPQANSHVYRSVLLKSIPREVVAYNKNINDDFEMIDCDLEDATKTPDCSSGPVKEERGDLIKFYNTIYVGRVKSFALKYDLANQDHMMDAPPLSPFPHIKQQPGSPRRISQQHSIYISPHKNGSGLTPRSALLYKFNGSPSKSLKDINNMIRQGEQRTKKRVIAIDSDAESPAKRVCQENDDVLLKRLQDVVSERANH

JC virus small tumor antigen, wild type (from UniProt P03083 1-172)
binding [1]: binds
binding [2]: binds weakly
binding [3]: binds
